# Source: patent publication US20240181000A1, “LGG-DERIVED PEPTIDES AND METHODS OF USE THEREOF” (Ohio State Innovation Foundation, priority 2021, published 2024)
# Not every detail of the peptide structures is certain; ends, links or a residue may be inferred. Marks after values point to notes of the source that are not given here. Some entries share one result that the patent states for a list of compounds. No end group written: not given here.
# How the values were obtained:
# [1] = tested on: cecal microbiota; test: Cecal microbiome analysis (peptides, APEC infected); format: in vivo, chickens
# Procedure: Cecal microbiome analysis: To investigate the impact of peptides (P1, P2, and P3) treatment (50 mg/kg and 100 mg/kg) on cecal microbiome of chickens, 16S rRNA based metagenomic study was conducted as previously described. DNA was extracted from 0.2 g of cecal contents using PureLink™ Microbiome DNA Purification Kit (Thermofisher Scientific) and treated with RNase A (2 μL of 100 mg/mL solution per sample; Qiagen) to remove the RNA. DNA quantity and quality were measured using NanoDrop 2000c Spectrophotometer (Thermo Fisher Scientific). The extracted DNA samples were subjected to 16S rRNA V4-V5 sequencing at molecular and cellular imaging center (MCIC), Ohio Agricultural Research and Development Center (OARDC) (mcic.osu.edu/genomics/illumina-sequencing). Amplicon libraries were prepared using IFU KAPA HiFi HotStart ReadyMixPCR Kit (Roche) and PCR clean-up was performed using Agencourt AMPure XP beads (BECKMAN COULTER Life Sciences). Nextera XT DNA Library Preparation Kit (Illumina) was used to generate Illumina library and sequencing was performed using Illumina MiSeq platform generating paired end 300-bp reads.
# For the metagenomic analysis, QIIME (Quantitative Insights into Microbial Ecology) 2 bioinformatics platform (qiime2.org/) was used. Quality control of the raw reads was performed using FastQC 0.11.8 (Babraham Bioinformatics). Trimmomatic-0.33 was used to trim the adaptor and other illumina-specific sequences (www.usadellab.org/cms/?page=trimmomatic). The trimmed sequences (fastq.gz) were then imported into the QIIME 2 as a manifest file format (PairedEndManifestPhred33V2). The feature table construction and additional filtering of the sequences was performed using DADA2. The taxonomic analysis was performed using Naive Bayes classifiers trained on the Silva 132 99% OTUs (silva-132-99-nb-classifier.qza) database. The phylogenetic diversity was analyzed using align-to-tree-mafft-fasttree pipeline and alpha ([…]) were analyzed using core-metrics-phylogenetic pipeline (docs.qiime2.org/2019.7/tutorials/moving-pictures/). The statistical difference (P<0.05) in the taxonomic composition between the peptides treated, PC, and NC groups was determined using Mann-Whitney U test. The alpha and beta diversity were analyzed using Kruskal-Wallis and PERMANOVA tests (P<0.05), respectively.
# [2] = tested on: intracellular APEC O78 in HD11 cells; test: Intracellular survival of APEC in HD11 cells (gentamicin protection assay); format: cell-based, chicken
# Procedure: Effect of peptides on intracellular survival of APEC in HD11 cells: To determine the efficacy of peptides (P1, P2, and P3) against intracellular APEC, gentamicin protection assay was conducted in HD 11 (chicken macrophage) cells as described previously. The cells were cultured in Iscove's Modified Dulbecco's Media (IMDM) supplemented with 10% fetal bovine serum (FBS), 2 mM L-glutamine and 2% penicillin-streptomycin (P/S) solution and maintained at 37° C. incubator with 5% C02. Cells (approximately 10^4 cells/well) were seeded in a 96-well cell culture plate in 100 μL culture media and incubated for 36 h prior to using for the assay. Following incubation, the cells were replenished with 100 μL of fresh cell culture media with no FBS and antibiotic and incubated until infection (2 h). For the infection, the overnight grown APEC O78 was subcultured to mid-logarithmic phase, centrifuged, washed twice with PBS, adjusted to 1×10^7 CFU/mL. One-hundred microliters of the APEC suspension (MOI: 100) was added to each well of the 96-well plate and incubated for 1 h to allow the invasion. The cells were washed twice and treated with gentamicin (150 μg/mL) to kill the extracellular APEC. The cells were treated with peptides at 12 mM, 15 mM, and 18 mM concentrations. Infected but not treated, infected and DMSO-treated, and non-infected and not treated cells were used as controls. Three independent experiments were conducted.
sequence,measurement,setting,value
NPSRQERR [Peptide P1],Beta-diversity (weighted unifrac) vs NC chickens,[1]; 50 mg/kg,similar
same,Relative abundance Erysipelotrichia,"[1]; 50 mg/kg, compared to PC",11.82% to 3.83%
same,Relative abundance (%) Anaerotruncus,"[1]; genus, 50-mg/kg dose",0.73%
same,Relative abundance (%) Bacteroides,"[1]; genus, 50-mg/kg dose",56.08%
same,Relative abundance (%) Clostridioides,"[1]; genus, 50-mg/kg dose",0.00%
same,Relative abundance (%) Clostridium sensu stricto 1,"[1]; genus, 50-mg/kg dose",0.00%
same,Relative abundance (%) Enterococcus,"[1]; genus, 50-mg/kg dose",0.24%
same,Relative abundance (%) Erysipelatoclostridium,"[1]; genus, 50-mg/kg dose",5.53^a %
same,Relative abundance (%) Flavonifractor,"[1]; genus, 50-mg/kg dose",0.63%
same,Relative abundance (%) Lachnospiraceae (uncultured),"[1]; genus, 50-mg/kg dose",0.00%
same,Relative abundance (%) Oscillibacter,"[1]; genus, 50-mg/kg dose",0.18%
same,Relative abundance (%) Pediococcus,"[1]; genus, 50-mg/kg dose",0.00%
same,Relative abundance (%) Ruminiclostridium 5,"[1]; genus, 50-mg/kg dose",1.69%
same,Relative abundance (%) Ruminiclostridium 9,"[1]; genus, 50-mg/kg dose",0.00%
same,Relative abundance (%) Ruminococcus gnavus group,"[1]; genus, 50-mg/kg dose",0.00%
same,Relative abundance (%) Ruminococcus torques group,"[1]; genus, 50-mg/kg dose",7.08%
same,Relative abundance (%) Anaerotruncus,"[1]; genus, 100-mg/kg dose",0.00%
same,Relative abundance (%) Bacillus,"[1]; genus, 100-mg/kg dose",2.64%
same,Relative abundance (%) Blautia,"[1]; genus, 100-mg/kg dose",0.00%
same,Relative abundance (%) Butyricicoccus,"[1]; genus, 100-mg/kg dose",0.44^b %
same,Relative abundance (%) Caproiciproducens,"[1]; genus, 100-mg/kg dose",0.00%
same,Relative abundance (%) Clostridiales vadin BB60 group,"[1]; genus, 100-mg/kg dose",0.00%
same,Relative abundance (%) Clostridioides,"[1]; genus, 100-mg/kg dose",0.21%
same,Relative abundance (%) Clostridium innocuum group,"[1]; genus, 100-mg/kg dose",0.00^b %
same,Relative abundance (%) Clostridium sensu stricto 1,"[1]; genus, 100-mg/kg dose",0.68%
same,Relative abundance (%) Enterococcus,"[1]; genus, 100-mg/kg dose",4.99%
same,Relative abundance (%) Erysipelatoclostridium,"[1]; genus, 100-mg/kg dose",17.11%
same,Relative abundance (%) Eubacterium coprostanoligenes group,"[1]; genus, 100-mg/kg dose",0.00%
same,Relative abundance (%) Flavonifractor,"[1]; genus, 100-mg/kg dose",2.40%
same,Relative abundance (%) Lachnospiraceae (uncultured),"[1]; genus, 100-mg/kg dose",1.85%
same,Relative abundance (%) Lactobacillus,"[1]; genus, 100-mg/kg dose",0.00%
same,Relative abundance (%) Lactococcus,"[1]; genus, 100-mg/kg dose",0.00^b %
same,Relative abundance (%) Oscillibacter,"[1]; genus, 100-mg/kg dose",0.00%
same,Relative abundance (%) Paenibacillus,"[1]; genus, 100-mg/kg dose",0.00%
same,Relative abundance (%) Pediococcus,"[1]; genus, 100-mg/kg dose",0.49%
same,Relative abundance (%) Ruminiclostridium 5,"[1]; genus, 100-mg/kg dose",0.00%
same,Relative abundance (%) Ruminiclostridium 9,"[1]; genus, 100-mg/kg dose",0.00%
same,Relative abundance (%) Ruminococcacede UCG-005,"[1]; genus, 100-mg/kg dose",0.56%
same,Relative abundance (%) Ruminococcus torques group,"[1]; genus, 100-mg/kg dose",7.62%
same,Relative abundance (%) Sellimonas,"[1]; genus, 100-mg/kg dose",0.00^b %
same,Relative abundance (%) UBA1819,"[1]; genus, 100-mg/kg dose",0.00%
same,Relative abundance (%) Weissella,"[1]; genus, 100-mg/kg dose",1.60%
same,Intracellular APEC (log CFU/mL),"[2]; 12 mM, untreated 3.75 ± 0.10",3.57 ± 0.07 log CFU/mL
same,Intracellular APEC (log CFU/mL),[2]; 15 mM,No intracellular APEC was recovered
same,Intracellular APEC (log CFU/mL),"[2]; 15 mM, listed as P-1",0.00 ± 0.00 log CFU/mL
same,Intracellular APEC (log CFU/mL),[2]; 18 mM,0.00 ± 0.00 log CFU/mL
